# From the supplement of paper PMC12889115
# The list shows a part of the results. Values are raw readings; no control value is given beside them.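 First-pass screen: polymyxin B was added at a level that permeabilizes the Salmonella outer membrane while sparing the inner membrane. DMSO wells, with and without polymyxin B, defined maximum growth. Because plates differed from one another, each plate's data were ranked separately and the compounds with the lowest OD600 were carried forward as hits.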
# Tested on: Salmonella enterica serovar Typhimurium SL1344
# Experiment: bacterial growth OD600 after 18 h with compound and polymyxin B; higher = more bacterial growth (less inhibition)
# Conditions: 50 µM, Mueller-Hinton broth
SMILES,bacterial growth OD600 (polymyxin B 0.75 µg/mL),bacterial growth OD600 (polymyxin B 1 µg/mL)
Cc1ccccc1SC1CCN(C(=O)Cn2cc(NC(=O)CCOc3ccccc3)cn2)CC1,0.854,
Cn1ccnc1C1CCCCN1C(=O)CC1(c2ccccc2)CC(=O)N(CCc2ccccn2)C1=O (centres undefined),0.923,
COc1cccc(CNC(=O)CCC2CCCN(Cc3cccc(C)n3)C2)c1 (centres undefined),,1.09
CCC(=O)N[C@@H]1c2ccccc2C2(CCN(C(=O)c3ccc(C)cc3)CC2)[C@H]1OCc1cccnc1,0.596,
COc1cc(CC2(CCC(=O)N3CCC(c4ccccc4Cl)C3)CCC(=O)N2)ccc1F (centres undefined),0.778,
O=C(NCc1ccccc1)C1CCCN(C2CCN(C3CCCCC3)CC2)C1 (centres undefined),0.762,
CN(C)c1ncccc1CNS(=O)(=O)c1ccc2c(c1)OCCO2,,0.942
CNC(C)c1cnc(N2CCCCCCC2)nc1C (centres undefined),0.497,
COCCCN1C(=O)CC(CC(=O)NCc2cnn(-c3ccccc3C)c2)(c2ccccc2C)C1=O (centres undefined),0.722,
Cc1ccc2c(c1)CN(C1CCC1)CC(c1ccsc1)O2 (centres undefined),0.616,
O=C(c1sccc1Cl)N1CCOc2ccc(CN3CCN(c4ccccn4)CC3)cc2C1,0.842,
Cc1nc(N(C)C2CCCCC2)ncc1C(C)NCc1ccccn1 (centres undefined),0.527,
Cn1c(C2CCC2)nc2cc(C(=O)NCCc3c[nH]c4ccccc34)cc(NC(=O)C3CCCO3)c21 (centres undefined),0.779,
CCOc1ccc2nc(N3CCCC(C(=O)N(C)Cc4nccn4C)C3)nc(C)c2c1 (centres undefined),0.809,
COc1cc(OC)c(OC)cc1CN1CCCC(CO)(Cc2cccc(Cl)c2)C1 (centres undefined),,0.841
O=C1CCCN1CCC1CCCCN1Cc1nc(-c2ccccn2)no1 (centres undefined),,0.972
COc1ccc2nc(CNC(=O)c3oc4ccc(C)cc4c3C)[nH]c2c1,0.67,
CN(Cc1ccc2nccnc2c1)C(=O)c1ccc(OC2CCN(C(=O)C3CC3)CC2)cc1,,1.07
CN(Cc1ccc2ccccc2n1)C(=O)c1ccc(OCC2(C)CCCNC2)nc1 (centres undefined),0.768,

# Look-ups from the list.
# O=C(c1sccc1Cl)N1CCOc2ccc(CN3CCN(c4ccccn4)CC3)cc2C1 – bacterial growth OD600 (polymyxin B 0.75 µg/mL): 0.842
# CNC(C)c1cnc(N2CCCCCCC2)nc1C (centres undefined) – bacterial growth OD600 (polymyxin B 0.75 µg/mL): 0.497
